Compound in this test: Nc1ncnc2c1ncn2[C@@H]1O[C@H](COP(=O)(O)OP(=O)(O)NP(=O)(O)O)[C@@H](O)[C@H]1O [adenylyl imidodiphosphate]
In words: NP40-soluble protein abundance relative to vehicle (solubility fold change) (ratio); higher = more soluble protein in presence of AMP-PNP. An outline of the steps: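 In three independent experiments, Jurkat crude lysate made by Dounce homogenisation was treated for 10 min at room temperature and then 3 min at 37 °C with eight concentrations ranging from 0.1 to 10 mM. It was then solubilised with 0.8% NP40 plus benzonase for 60 min at 4 °C and ultracentrifuged. The supernatant was TMT-labelled for LC-MS/MS, and each value is the fold change against the detergent-processed vehicle for the same replicate, using vsn-normalised intensities.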

Protein sequences, listed by entry. Tags and fused reporters are not part of them. Lines headed by an entry give the natural chain unless they say otherwise; changes in a name come on top.
UniProt A8MWD9, whole entry, looked up: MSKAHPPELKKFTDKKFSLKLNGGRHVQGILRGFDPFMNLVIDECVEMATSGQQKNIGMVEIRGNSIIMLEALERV
UniProt P62308, whole entry, looked up: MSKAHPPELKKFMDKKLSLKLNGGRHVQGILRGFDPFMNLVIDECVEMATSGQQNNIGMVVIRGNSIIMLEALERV
UniProt Q8WTS6: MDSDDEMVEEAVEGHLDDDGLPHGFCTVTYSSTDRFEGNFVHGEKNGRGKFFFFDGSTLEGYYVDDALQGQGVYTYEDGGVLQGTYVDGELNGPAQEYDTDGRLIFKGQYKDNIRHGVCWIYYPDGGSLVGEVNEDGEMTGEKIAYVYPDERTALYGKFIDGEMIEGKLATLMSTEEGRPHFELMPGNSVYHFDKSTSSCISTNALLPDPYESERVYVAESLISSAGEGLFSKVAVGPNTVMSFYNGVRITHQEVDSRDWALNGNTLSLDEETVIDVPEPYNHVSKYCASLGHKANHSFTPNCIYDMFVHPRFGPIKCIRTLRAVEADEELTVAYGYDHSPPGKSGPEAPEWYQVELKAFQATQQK
UniProt Q15019: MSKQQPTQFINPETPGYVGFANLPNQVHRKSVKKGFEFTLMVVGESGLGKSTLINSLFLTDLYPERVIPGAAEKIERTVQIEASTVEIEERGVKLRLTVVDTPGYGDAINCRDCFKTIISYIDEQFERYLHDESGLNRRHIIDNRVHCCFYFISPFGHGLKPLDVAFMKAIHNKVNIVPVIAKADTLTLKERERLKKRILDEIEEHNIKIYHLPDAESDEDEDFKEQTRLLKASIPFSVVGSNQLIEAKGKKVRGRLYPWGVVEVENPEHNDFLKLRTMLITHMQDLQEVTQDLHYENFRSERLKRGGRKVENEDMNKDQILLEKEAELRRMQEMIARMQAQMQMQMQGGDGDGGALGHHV
UniProt Q8NEZ3: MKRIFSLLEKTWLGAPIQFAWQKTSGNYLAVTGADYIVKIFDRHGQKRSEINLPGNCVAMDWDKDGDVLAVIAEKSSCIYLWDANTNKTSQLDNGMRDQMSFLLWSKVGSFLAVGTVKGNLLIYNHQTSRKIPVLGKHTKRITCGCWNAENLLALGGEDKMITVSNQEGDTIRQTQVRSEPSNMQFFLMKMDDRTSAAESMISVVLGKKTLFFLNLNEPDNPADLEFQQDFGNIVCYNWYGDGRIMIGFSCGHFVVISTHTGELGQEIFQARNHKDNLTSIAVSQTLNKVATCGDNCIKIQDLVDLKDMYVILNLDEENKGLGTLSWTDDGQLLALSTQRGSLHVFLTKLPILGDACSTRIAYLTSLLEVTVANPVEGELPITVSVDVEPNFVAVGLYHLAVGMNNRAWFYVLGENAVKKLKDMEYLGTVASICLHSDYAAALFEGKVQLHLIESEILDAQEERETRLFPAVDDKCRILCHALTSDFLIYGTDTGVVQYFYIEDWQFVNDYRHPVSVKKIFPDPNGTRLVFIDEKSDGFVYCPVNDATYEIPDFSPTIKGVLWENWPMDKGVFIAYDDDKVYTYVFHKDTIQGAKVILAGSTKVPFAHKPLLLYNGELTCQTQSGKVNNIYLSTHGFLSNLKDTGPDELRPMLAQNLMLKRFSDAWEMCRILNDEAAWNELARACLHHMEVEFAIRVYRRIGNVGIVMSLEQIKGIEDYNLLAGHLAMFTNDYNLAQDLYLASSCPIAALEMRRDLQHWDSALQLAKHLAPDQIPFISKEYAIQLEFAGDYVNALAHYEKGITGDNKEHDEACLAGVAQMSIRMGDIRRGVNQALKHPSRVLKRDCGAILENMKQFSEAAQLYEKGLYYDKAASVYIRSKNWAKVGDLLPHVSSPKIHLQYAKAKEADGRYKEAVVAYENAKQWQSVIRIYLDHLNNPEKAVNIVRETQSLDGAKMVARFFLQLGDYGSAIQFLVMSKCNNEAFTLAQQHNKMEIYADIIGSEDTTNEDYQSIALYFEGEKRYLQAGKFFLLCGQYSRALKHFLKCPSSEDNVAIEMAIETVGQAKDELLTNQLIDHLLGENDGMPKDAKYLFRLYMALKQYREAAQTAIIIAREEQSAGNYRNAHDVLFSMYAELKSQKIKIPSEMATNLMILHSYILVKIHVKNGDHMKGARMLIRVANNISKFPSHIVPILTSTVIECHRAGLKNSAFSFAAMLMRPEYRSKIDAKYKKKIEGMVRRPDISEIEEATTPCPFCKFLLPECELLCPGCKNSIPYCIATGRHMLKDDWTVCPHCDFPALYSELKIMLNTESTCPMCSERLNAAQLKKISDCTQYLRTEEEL
UniProt Q6P1N9: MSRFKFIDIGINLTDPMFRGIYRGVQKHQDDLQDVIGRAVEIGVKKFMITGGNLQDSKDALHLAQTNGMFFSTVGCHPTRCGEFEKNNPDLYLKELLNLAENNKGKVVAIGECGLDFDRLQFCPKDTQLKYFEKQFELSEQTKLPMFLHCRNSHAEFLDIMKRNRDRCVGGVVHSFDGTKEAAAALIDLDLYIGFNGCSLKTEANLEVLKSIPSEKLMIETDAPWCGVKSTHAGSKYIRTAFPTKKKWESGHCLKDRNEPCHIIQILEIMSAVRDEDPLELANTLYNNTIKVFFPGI
UniProt C9JLW8: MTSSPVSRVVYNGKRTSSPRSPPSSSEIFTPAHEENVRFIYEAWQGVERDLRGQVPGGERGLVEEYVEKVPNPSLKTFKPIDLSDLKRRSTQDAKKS
UniProt A6NIH7: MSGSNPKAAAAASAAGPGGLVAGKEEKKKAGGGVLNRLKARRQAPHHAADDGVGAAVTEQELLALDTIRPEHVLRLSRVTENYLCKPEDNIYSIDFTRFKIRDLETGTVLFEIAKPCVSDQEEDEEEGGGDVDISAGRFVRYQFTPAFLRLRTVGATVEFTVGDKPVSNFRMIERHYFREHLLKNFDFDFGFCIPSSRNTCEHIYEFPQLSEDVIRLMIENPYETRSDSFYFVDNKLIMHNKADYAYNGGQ
UniProt Q9H6V9: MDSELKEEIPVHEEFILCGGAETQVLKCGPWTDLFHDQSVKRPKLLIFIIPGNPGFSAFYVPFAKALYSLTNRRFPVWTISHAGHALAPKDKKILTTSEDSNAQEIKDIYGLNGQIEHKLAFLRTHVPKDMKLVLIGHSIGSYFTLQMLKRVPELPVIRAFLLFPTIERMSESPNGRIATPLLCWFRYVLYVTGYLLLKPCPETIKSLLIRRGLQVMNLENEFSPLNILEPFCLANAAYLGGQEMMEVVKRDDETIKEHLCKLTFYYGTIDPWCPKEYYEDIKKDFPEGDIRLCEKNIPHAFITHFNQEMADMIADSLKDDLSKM
UniProt A3KN83: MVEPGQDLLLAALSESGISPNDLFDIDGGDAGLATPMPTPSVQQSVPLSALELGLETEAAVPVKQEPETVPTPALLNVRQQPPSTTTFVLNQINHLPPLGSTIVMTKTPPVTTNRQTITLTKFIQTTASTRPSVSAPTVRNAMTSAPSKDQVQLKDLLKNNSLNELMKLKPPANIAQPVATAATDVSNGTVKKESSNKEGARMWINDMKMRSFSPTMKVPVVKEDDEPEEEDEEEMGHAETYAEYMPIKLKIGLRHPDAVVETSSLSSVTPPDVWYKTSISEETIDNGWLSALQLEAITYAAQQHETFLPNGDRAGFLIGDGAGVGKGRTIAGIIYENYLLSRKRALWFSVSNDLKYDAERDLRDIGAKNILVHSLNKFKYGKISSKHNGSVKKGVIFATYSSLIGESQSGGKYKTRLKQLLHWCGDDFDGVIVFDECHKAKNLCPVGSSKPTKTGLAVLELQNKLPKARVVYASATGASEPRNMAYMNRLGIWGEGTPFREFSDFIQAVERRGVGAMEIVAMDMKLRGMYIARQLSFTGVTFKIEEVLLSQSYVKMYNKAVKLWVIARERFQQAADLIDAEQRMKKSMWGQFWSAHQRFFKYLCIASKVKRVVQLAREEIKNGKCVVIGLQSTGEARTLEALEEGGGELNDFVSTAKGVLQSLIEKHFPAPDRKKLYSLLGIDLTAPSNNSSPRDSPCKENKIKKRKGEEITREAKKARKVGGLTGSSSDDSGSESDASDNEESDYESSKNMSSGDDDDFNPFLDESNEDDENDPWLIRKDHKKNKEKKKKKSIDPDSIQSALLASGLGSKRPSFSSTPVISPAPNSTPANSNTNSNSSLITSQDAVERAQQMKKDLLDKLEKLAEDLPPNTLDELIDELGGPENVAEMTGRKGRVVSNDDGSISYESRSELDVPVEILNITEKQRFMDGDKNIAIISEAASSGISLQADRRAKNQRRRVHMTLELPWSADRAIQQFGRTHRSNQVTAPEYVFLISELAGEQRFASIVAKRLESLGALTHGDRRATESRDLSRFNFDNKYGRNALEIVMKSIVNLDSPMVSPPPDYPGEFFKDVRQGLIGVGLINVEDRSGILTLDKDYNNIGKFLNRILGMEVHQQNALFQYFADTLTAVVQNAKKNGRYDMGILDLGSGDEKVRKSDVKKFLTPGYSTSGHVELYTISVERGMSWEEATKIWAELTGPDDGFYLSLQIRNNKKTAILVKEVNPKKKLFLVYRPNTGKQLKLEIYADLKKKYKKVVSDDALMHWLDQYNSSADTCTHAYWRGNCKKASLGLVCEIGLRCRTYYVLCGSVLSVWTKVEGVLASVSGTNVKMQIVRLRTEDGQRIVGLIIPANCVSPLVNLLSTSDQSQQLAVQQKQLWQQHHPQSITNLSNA
UniProt Q9NUQ7: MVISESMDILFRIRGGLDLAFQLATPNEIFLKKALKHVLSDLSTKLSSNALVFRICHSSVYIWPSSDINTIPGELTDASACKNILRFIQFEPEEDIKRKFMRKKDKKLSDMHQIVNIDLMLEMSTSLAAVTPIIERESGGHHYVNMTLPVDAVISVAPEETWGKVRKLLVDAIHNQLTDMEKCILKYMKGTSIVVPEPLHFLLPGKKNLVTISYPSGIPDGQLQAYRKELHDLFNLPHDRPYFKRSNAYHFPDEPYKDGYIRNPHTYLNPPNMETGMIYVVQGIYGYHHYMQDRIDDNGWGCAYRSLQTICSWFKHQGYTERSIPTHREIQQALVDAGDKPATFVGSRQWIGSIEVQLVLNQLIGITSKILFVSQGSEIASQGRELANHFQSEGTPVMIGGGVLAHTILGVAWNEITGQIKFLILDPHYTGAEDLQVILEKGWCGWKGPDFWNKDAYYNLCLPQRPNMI
UniProt Q9Y6E2: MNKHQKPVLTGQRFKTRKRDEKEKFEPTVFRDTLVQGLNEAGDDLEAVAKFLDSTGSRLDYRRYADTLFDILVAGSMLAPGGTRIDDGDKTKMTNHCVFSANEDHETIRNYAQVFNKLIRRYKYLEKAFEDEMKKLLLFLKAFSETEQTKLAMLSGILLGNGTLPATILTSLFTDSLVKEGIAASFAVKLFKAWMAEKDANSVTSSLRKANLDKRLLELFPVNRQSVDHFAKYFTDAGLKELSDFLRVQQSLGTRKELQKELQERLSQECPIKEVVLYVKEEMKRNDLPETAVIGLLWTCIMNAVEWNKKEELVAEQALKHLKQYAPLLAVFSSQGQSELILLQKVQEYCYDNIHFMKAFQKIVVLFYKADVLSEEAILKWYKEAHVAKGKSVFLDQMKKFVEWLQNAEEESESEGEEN
UniProt O14730: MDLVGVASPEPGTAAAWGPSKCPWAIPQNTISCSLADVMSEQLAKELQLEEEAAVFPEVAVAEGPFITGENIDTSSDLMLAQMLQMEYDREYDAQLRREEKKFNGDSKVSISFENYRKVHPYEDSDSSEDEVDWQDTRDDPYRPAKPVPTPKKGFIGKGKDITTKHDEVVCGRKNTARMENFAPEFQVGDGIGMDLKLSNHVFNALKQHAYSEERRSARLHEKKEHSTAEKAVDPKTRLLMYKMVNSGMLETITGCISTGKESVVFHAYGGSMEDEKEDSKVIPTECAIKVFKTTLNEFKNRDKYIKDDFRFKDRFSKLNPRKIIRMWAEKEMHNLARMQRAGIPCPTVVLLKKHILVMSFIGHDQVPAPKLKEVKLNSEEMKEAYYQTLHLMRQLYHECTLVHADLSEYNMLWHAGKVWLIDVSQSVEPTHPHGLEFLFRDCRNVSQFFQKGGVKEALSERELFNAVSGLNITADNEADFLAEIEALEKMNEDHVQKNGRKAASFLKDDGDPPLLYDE
UniProt Q5W0Z9: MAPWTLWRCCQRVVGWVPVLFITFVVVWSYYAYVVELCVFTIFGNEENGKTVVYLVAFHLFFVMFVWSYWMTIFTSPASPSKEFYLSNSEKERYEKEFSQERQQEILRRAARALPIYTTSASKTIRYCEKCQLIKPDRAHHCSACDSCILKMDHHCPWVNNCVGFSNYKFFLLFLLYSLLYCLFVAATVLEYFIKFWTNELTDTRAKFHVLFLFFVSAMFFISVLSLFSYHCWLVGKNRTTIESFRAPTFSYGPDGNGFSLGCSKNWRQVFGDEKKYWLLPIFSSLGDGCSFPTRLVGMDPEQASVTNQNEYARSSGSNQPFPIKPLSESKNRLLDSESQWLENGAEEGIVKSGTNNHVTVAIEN

± gives the standard deviation of the averaged measurements. This is a selection; strong and weak results do not stand in their true shares.

On to “A8MWD9 and related entries (UniProt P62308+A8MWD9)”, for which the NP40-soluble protein abundance reads like this: (concentration: 1mM) 1.05 ± 0.012; (concentration: 2mM) 1.08 ± 0.0011; (concentration: 4mM) 1.12 ± 0.021; (concentration: 6mM) 1.15 ± 0.021; (concentration: 8mM) 1.26 ± 0.035; (concentration: 10mM) 1.28 ± 0.055.

As to “B5MCS2 and related entries (UniProt Q8WTS6)”, the NP40-soluble protein abundance (concentration: 1mM) worked out at 0.93 ± 0.076; the NP40-soluble protein abundance (concentration: 2mM) is 0.946 ± 0.039; the NP40-soluble protein abundance (concentration: 4mM) worked out at 0.946 ± 0.043; the NP40-soluble protein abundance (concentration: 6mM) amounted to 0.954 ± 0.032; the NP40-soluble protein abundance (concentration: 8mM) was determined as 0.957 ± 0.022; the NP40-soluble protein abundance (concentration: 10mM) was 0.936 ± 0.042.

“B5MCX3 and related entries (UniProt Q15019)”: the NP40-soluble protein abundance turned out to be 1.027 ± 0.0023 (concentration: 1mM); 0.997 ± 0.032 (concentration: 2mM); 1.003 ± 0.0091 (concentration: 4mM); 0.984 ± 0.026 (concentration: 6mM); 0.98 ± 0.017 (concentration: 8mM); 0.952 ± 0.037 (concentration: 10mM).

Consider “B4DEM9 and related entries (UniProt Q9Y2S7)”, for which the NP40-soluble protein abundance (concentration: 1mM) was determined as 0.969 ± 0.048; the NP40-soluble protein abundance (concentration: 2mM) was found to be 0.916 ± 0.047; the NP40-soluble protein abundance (concentration: 4mM) is 0.961 ± 0.039; the NP40-soluble protein abundance (concentration: 6mM) stood at 0.942 ± 0.029; the NP40-soluble protein abundance (concentration: 8mM) was 0.961 ± 0.029; the NP40-soluble protein abundance (concentration: 10mM) turned out to be 0.927 ± 0.038.

For “D6RE75 and related entries (UniProt Q8NEZ3)”, the NP40-soluble protein abundance (concentration: 1mM) came to 0.993 ± 0.032; the NP40-soluble protein abundance (concentration: 2mM) turned out to be 1.046 ± 0.0099; the NP40-soluble protein abundance (concentration: 4mM) was 0.9868 ± 0.0082; the NP40-soluble protein abundance (concentration: 6mM) came out at 0.967 ± 0.056; the NP40-soluble protein abundance (concentration: 8mM) was determined as 0.973 ± 0.064; the NP40-soluble protein abundance (concentration: 10mM) stood at 0.973 ± 0.038.

With “E5RG17 and related entries (UniProt Q6P1N9)”, the NP40-soluble protein abundance (concentration: 1mM) was 1.01 ± 0.04; the NP40-soluble protein abundance (concentration: 2mM) is 0.992 ± 0.045; the NP40-soluble protein abundance (concentration: 4mM) amounted to 1.01 ± 0.076; the NP40-soluble protein abundance (concentration: 6mM) amounted to 0.964 ± 0.03; the NP40-soluble protein abundance (concentration: 8mM) came to 0.96 ± 0.057; the NP40-soluble protein abundance (concentration: 10mM) came out at 0.954 ± 0.073.

For the target UniProt C9JLW8 and related entries, the NP40-soluble protein abundance is, setting by setting: (concentration: 1mM) 1.01 ± 0.055; (concentration: 2mM) 0.988 ± 0.059; (concentration: 4mM) 1.005 ± 0.01; (concentration: 6mM) 0.9847 ± 0.0018; (concentration: 8mM) 0.983 ± 0.037; (concentration: 10mM) 0.966 ± 0.012.

On to UNC119B (UniProt A6NIH7), for which the NP40-soluble protein abundance runs as follows: (concentration: 1mM) 1.04 ± 0.022; (concentration: 2mM) 0.988 ± 0.029; (concentration: 4mM) 1.01 ± 0.031; (concentration: 6mM) 1.01 ± 0.061; (concentration: 8mM) 0.994 ± 0.05; (concentration: 10mM) 1.01 ± 0.05.

Regarding “B4DRG3 and related entries (UniProt Q9H6V9+B5MCE2+B5MDU6+B4DRG3)”, the NP40-soluble protein abundance reads like this: (concentration: 1mM) 0.9913 ± 0.0098; (concentration: 2mM) 0.948 ± 0.046; (concentration: 4mM) 0.999 ± 0.013; (concentration: 6mM) 1.026 ± 0.0069; (concentration: 8mM) 1.05 ± 0.05; (concentration: 10mM) 0.9907 ± 0.006.

Consider “B4E0T2 and related entries (UniProt P50542)”, for which the NP40-soluble protein abundance is, setting by setting: (concentration: 1mM) 1.01 ± 0.032; (concentration: 2mM) 1.03 ± 0.021; (concentration: 4mM) 0.985 ± 0.03; (concentration: 6mM) 0.946 ± 0.029; (concentration: 8mM) 0.943 ± 0.035; (concentration: 10mM) 0.943 ± 0.029.

Consider UniProt A3KN83 and related entries, for which the NP40-soluble protein abundance amounted to 1.03 ± 0.021 (concentration: 1mM); 0.985 ± 0.035 (concentration: 2mM); 1.01 ± 0.016 (concentration: 4mM); 0.964 ± 0.026 (concentration: 6mM); 0.971 ± 0.017 (concentration: 8mM); 0.968 ± 0.013 (concentration: 10mM).

Turning to “D6RGX2 and related entries (UniProt Q9NUQ7)”, the NP40-soluble protein abundance by setting is: (concentration: 1mM) 0.988 ± 0.04; (concentration: 2mM) 0.951 ± 0.1; (concentration: 4mM) 0.969 ± 0.055; (concentration: 6mM) 0.964 ± 0.017; (concentration: 8mM) 0.989 ± 0.023; (concentration: 10mM) 0.946 ± 0.035.

Take “B5MCH7 and related entries (UniProt Q9Y6E2)”: the NP40-soluble protein abundance is, setting by setting: (concentration: 1mM) 0.975 ± 0.045; (concentration: 2mM) 0.992 ± 0.048; (concentration: 4mM) 0.953 ± 0.032; (concentration: 6mM) 1 ± 0.046; (concentration: 8mM) 1 ± 0.046; (concentration: 10mM) 0.962 ± 0.06.

With “B4E1Q4 and related entries (UniProt O14730)”, the NP40-soluble protein abundance by setting is: (concentration: 1mM) 0.976 ± 0.017; (concentration: 2mM) 0.963 ± 0.011; (concentration: 4mM) 0.957 ± 0.0051; (concentration: 6mM) 0.933 ± 0.036; (concentration: 8mM) 0.949 ± 0.048; (concentration: 10mM) 0.929 ± 0.05.

As to “B4DRN8 and related entries (UniProt Q5W0Z9)”, the NP40-soluble protein abundance by setting is: (concentration: 1mM) 0.993 ± 0.0064; (concentration: 2mM) 1 ± 0.012; (concentration: 4mM) 0.987 ± 0.067; (concentration: 6mM) 0.966 ± 0.016; (concentration: 8mM) 0.957 ± 0.051; (concentration: 10mM) 0.985 ± 0.048.

The values are drawn from the supplement of paper PMC6411743.
